Tags and fusion partners may be left off the protein sequences shown.
Target: T1, Clr (Sinorhizobium meliloti) (UniProt Q92SD2)
T1 sequence (looked up): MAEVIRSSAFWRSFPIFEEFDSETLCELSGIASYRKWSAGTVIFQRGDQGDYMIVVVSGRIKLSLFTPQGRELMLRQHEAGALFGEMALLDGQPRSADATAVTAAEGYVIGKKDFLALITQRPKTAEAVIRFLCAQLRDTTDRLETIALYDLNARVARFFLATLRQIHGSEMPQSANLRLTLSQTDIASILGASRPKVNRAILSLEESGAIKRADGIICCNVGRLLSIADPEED
Assay: ITC
Details: 1 mM cGMP; ITC: 20 mM HEPES, 300 mM NaCl, 20 mM MgCl2, pH 7.0, 25 C; recombinant protein; residues 1-234; protein details: C-terminal His6 (pET36b, NdeI/XhoI); letters put together from the description; only the site is given

“CTAGGTAACATTACTCGCG / GCGAGTAATGTTAC / CTAGGTAACATTACTCGCG / GCGAGTAATGTTAC”: binds.
